According to patent publication US8815891B2, “Tricyclic derivative or pharmaceutically acceptable salts thereof, preparation method thereof, and pharmaceutical composition containing the same” (Je Il Pharmaceutical Co., Ltd., priority 2008, dated 2014):
Structures were worked out from names or drawings and are uncertain.

The chains behind the UniProt entries cited, without tags or fusion partners.
UniProt P09874, whole entry: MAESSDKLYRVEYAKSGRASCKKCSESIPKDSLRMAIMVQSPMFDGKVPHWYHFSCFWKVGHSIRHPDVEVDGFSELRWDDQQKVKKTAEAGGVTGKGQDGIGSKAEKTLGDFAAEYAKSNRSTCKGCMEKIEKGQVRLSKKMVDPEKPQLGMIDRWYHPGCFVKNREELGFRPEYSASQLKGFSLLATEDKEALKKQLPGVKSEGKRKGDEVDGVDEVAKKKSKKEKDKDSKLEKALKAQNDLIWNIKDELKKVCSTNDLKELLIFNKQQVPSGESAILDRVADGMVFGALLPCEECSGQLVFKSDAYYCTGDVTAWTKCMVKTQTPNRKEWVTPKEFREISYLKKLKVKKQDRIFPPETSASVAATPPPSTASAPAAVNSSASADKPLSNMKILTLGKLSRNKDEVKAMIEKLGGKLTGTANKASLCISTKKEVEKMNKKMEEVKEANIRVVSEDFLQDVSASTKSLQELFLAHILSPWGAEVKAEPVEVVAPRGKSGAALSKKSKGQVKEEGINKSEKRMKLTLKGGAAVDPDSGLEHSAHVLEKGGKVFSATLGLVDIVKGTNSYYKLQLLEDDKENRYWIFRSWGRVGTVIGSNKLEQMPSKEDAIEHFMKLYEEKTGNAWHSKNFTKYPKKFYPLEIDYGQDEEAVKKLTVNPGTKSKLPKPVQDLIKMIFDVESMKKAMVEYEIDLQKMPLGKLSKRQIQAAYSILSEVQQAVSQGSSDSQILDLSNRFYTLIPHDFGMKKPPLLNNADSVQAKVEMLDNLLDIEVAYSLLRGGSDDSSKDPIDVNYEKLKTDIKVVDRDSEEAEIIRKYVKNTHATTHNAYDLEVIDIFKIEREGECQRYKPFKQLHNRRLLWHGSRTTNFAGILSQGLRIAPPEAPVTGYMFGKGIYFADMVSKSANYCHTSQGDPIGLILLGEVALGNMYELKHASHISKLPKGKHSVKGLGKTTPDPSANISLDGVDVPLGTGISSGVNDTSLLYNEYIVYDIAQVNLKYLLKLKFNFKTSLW

Target: PARP-1 enzyme (Homo sapiens (Human), UniProt P09874)
Test: Poly(ADP-ribose)polymerase [PARP-1] enzyme inhibitory activity (Trevigen PARP Assay kit)
Assay type: biochemical
Details: read-out: PARP-1 Inhibitory activity IC50; tested form: 2HCl

CCOC(=O)CCNCc1ccc2c3c(c(=O)[nH]c2c1)CCCN3
IC50: 540 nM
